{"source": "PubChem BioAssay AID226", "about": "(DTP/NCI, 2004)", "system": "B6C3F1 mice, intracerebral ependymoblastoma, median survival T/C", "assay": "NCI In Vivo Anticancer Drug Screen. Data for tumor model Ependymoblastoma (intracerebral) in B6C3F1 mice", "conditions": "T/C endpoint: median survival time, schedule: Q01DX005 (ip), vehicle: saline with Tween-80, higher T/C = longer survival", "method": "The antitumor activity of compounds was measured in mice bearing transplantable tumors. Survival or tumor size were measured and the results are expressed as the measurement made in the treated group (T) divided by the measurement made in the vehicle treated control group (C). The tumor model used in this assay is Ependymoblastoma (intracerebral) in B6C3F1 mice", "note": "The list is a part of this screen's results and no random one: it gathers some chemical classes. Not every dose and run of a compound is shown. T/C: endpoint of the treated group in % of that of the vehicle group. Where survival is the endpoint, the PubChem record calls one and a half times the control and up active, and a quarter to a half above the control has no call in these data; cut-offs in other NCI protocols can differ. Some T/C values are marked as having no survivor count here; that says nothing about deaths at the dose. Schedules are NCI's codes, read here as Q, the interval in days (D) or hours (H), X, the number of doses.", "data": [{"smiles": "Cc1cc2nc(CN(CCCl)CCCl)[nH]c2cc1C", "values": [{"measurement": "T/C", "setting": "dose: 0.5 mg/kg/injection", "result": "97 % of control [survivor count not shown]"}, {"measurement": "T/C", "setting": "dose: 1.0 mg/kg/injection", "result": "103 % of control [survivor count not shown]"}, {"measurement": "T/C", "setting": "dose: 2.0 mg/kg/injection", "result": "102 % of control [survivor count not shown]"}, {"measurement": "T/C", "setting": "dose: 4.0 mg/kg/injection", "result": "103 % of control [survivor count not shown]"}, {"measurement": "T/C", "setting": "dose: 8.0 mg/kg/injection", "result": "123 % of control [survivor count not shown]"}]}]}
